In US11414474B2, “Long-acting adrenomedullin derivatives” (University of Miyazaki, priority 2014, dated 2022):
Some entries share one result that the patent states for a list of compounds.

Test system: blood pressure of the rat
Experiment: Blood pressure-lowering effect after single intravenous dose in anesthetized rats
Format: in vivo
Conditions: intravenous single dose 10 nmol/kg
Experimental: From the catheter tube of the right jugular vein, a physiological saline-heparin solution (physiological saline: 100 ml; heparin: 1000 units) was infused at 2.4 ml/hr. […] The catheter inserted in the carotid artery was connected to a pressure transducer. […] In the figure, the longitudinal axis indicates a difference obtained by subtracting the average blood pressure before the administration of each drug from the average blood pressure at the time of the administration of each drug.
In the case of these derivatives, the blood pressure-lowering effect was sustained even 90 minutes after the administration. […] The blood pressure-lowering effect of the adrenomedullin derivative shown in this test was well consistent with the prolonged half-life in blood shown in the above test.

CCCCCCCCCCCCCCCC(=O)N[C@@H](Cc1ccc(O)cc1)C(=O)N[C@@H](CCCNC(=N)N)C(=O)N[C@@H](CCC(N)=O)C(=O)N[C@@H](CO)C(=O)N[C@@H](CCSC)C(=O)N[C@@H](CC(N)=O)C(=O)N[C@@H](CC(N)=O)C(=O)N[C@@H](Cc1ccccc1)C(=O)N[C@@H](CCC(N)=O)C(=O)NCC(=O)N[C@@H](CC(C)C)C(=O)N[C@@H](CCCNC(=N)N)C(=O)N[C@@H](CO)C(=O)N[C@@H](Cc1ccccc1)C(=O)NCC(=O)N[C@H]1CSSC[C@@H](C(=O)N[C@H](C(=O)N[C@H](C(=O)N[C@@H](CCC(N)=O)C(=O)N[C@@H](CCCCN)C(=O)N[C@@H](CC(C)C)C(=O)N[C@@H](C)C(=O)N[C@@H](Cc2c[nH]cn2)C(=O)N[C@@H](CCC(N)=O)C(=O)N[C@H](C(=O)N[C@@H](Cc2ccc(O)cc2)C(=O)N[C@@H](CCC(N)=O)C(=O)N[C@@H](Cc2ccccc2)C(=O)N[C@H](C(=O)N[C@@H](CC(=O)O)C(=O)N[C@@H](CCCCN)C(=O)N[C@@H](CC(=O)O)C(=O)N[C@@H](CCCCN)C(=O)N[C@@H](CC(=O)O)C(=O)N[C@@H](CC(N)=O)C(=O)N[C@H](C(=O)N[C@@H](C)C(=O)N2CCC[C@H]2C(=O)N[C@@H](CCCNC(=N)N)C(=O)N[C@@H](CO)C(=O)N[C@@H](CCCCN)C(=O)N[C@H](C(=O)N[C@@H](CO)C(=O)N2CCC[C@H]2C(=O)N[C@@H](CCC(N)=O)C(=O)NCC(=O)N[C@@H](Cc2ccc(O)cc2)C(N)=O)[C@@H](C)CC)C(C)C)[C@@H](C)O)[C@@H](C)CC)C(C)C)[C@@H](C)O)NC(=O)[C@H]([C@@H](C)O)NC(=O)CNC(=O)[C@H](Cc2ccccc2)NC(=O)[C@H](CCCNC(=N)N)NC1=O [Pal-h.AM(1-52)]
time after the administration at which blood pressure-lowering effect was still sustained: ≥ 90 min
